Here are results for one substance from paper PMC8734066.

The chains behind the UniProt entries cited, without tags or fusion partners. Residues count along the entry.
UniProt Q15843, residues 1-76: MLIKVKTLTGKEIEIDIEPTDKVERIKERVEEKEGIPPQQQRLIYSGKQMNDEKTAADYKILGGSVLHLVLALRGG
UniProt D3ZEF4: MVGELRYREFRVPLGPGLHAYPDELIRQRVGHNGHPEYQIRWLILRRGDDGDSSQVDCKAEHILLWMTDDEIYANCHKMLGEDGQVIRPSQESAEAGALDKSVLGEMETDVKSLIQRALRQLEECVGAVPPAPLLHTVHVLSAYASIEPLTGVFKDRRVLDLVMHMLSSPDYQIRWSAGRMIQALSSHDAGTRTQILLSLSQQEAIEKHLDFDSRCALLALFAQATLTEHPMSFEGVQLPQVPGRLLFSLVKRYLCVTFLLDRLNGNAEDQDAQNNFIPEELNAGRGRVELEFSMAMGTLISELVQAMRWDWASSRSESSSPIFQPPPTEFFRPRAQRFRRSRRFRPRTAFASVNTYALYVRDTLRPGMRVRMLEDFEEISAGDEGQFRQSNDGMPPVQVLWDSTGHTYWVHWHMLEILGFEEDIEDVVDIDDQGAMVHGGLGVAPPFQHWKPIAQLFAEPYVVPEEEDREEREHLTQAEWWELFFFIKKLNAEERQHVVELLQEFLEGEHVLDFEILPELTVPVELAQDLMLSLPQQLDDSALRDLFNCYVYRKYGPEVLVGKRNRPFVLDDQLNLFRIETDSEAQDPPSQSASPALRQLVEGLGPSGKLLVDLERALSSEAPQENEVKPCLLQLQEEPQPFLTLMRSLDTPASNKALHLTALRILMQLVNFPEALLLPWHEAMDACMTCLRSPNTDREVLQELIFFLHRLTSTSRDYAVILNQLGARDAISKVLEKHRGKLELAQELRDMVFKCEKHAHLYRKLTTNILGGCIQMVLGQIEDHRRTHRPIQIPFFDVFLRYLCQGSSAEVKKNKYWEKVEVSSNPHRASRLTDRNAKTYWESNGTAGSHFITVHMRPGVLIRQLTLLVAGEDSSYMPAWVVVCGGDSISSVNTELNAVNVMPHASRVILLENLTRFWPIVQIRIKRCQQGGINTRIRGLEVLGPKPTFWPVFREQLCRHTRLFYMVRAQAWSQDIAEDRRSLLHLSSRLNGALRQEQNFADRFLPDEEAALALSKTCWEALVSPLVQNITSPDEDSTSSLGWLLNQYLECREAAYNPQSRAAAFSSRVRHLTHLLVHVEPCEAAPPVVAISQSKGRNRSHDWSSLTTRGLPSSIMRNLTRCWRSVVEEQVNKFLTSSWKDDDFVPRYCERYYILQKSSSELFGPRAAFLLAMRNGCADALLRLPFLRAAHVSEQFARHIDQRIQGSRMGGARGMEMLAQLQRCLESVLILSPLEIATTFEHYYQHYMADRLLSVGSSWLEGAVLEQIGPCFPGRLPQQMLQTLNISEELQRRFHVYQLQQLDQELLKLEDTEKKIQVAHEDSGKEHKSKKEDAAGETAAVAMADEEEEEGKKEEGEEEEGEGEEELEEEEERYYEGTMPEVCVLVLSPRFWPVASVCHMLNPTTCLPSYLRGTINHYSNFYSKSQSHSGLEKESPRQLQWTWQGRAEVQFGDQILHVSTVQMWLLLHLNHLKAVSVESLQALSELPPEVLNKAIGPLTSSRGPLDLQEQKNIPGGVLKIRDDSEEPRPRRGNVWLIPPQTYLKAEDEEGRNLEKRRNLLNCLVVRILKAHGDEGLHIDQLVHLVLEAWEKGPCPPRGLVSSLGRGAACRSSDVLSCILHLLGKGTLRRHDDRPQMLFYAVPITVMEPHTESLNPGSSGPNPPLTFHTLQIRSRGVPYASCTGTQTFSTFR

Results are given in words; binding and its absence hold for the method and conditions named. Binding seen in cells or lysates may run through a third protein. Some results given as binding are weak or reduced against the parent protein; the word gives no strength.

The assay addresses HA-NEDD8 (neural precursor cell-expressed developmentally down-regulated gene 8) (UniProt Q15843). Kind of assay: co-IP; lysates of rat primary cortical neurons infected with AAV9 HA-NEDD8 (or the HA tag alone); tag-specific immunoprecipitation with anti-HA microbeads; neurons with or without TNFα and insulin for 24 h.

In the case of Cullin-7 (from UniProt D3ZEF4 1-1692), the binding result is “binds”.
